Literature values in patent US11173160B2 (UNIVERSITY OF PITTSBURGH—OF THE COMMONWEALTH SYSTEM OF …, priority 2019, dated 2021).
Some entries share one result that the patent states for a list of compounds. For at least one compound, name, drawing or mass did not settle the structure.

Test system: all other CDKs
Conditions: mostly above; cited from earlier work

IC50, > 250 nM:
CN(C)C(=O)c1cc2cnc(Nc3ccc(N4CCNCC4)cn3)nc2n1C1CCCC1 [ribociclib]
CCN1CCN(Cc2ccc(Nc3ncc(F)c(-c4cc(F)c5nc(C)n(C(C)C)c5c4)n3)nc2)CC1 [abemaciclib]
CC(=O)c1c(C)c2cnc(Nc3ccc(N4CCNCC4)cn3)nc2n(C2CCCC2)c1=O [palbociclib]
